{
  "source": "PubChem BioAssay AID540256",
  "about": "(National Center for Advancing Translational Sciences (NCATS), 2011)",
  "note": "Out of some 300,000 compounds screened, about 3,700 (1.2%) were called active. The shares of active, inactive and inconclusive entries below differ from those in the screen. Calls follow the shape of the full dose curve; tested in HEK293 cells. Where the call is inconclusive, the potency comes from a doubtful curve fit. % is scaled to controls: 0 for no effect and ±100 for the full control effect; potency is read from the fitted curve at half-maximal effect.",
  "data": [
    {"assay": "qHTS for Inhibitors of binding or entry into cells for Lassa Virus; also: nearly all actives have a fitted effect of over 50% in size", "conditions": "Lassa virus pseudotype entry inhibition, cell reporter; activity change, negative = inhibition: at 37.9 µM (top of the series) unless noted", "values": [
      {"smiles": "Cc1c(C(=O)NC2=NCCS2)cccc1[N+](=O)[O-]", "Potency": "inconclusive: 6.31 µM [activator, partial curve]"},
      {"smiles": "Cc1ccc[n+](CC(=O)c2ccc(Cl)cc2)c1", "Potency": "inconclusive: 0.891 µM [inhibitor, single point]"},
      {"smiles": "CCOC(=O)/C(C#N)=C\\c1cccnc1", "Potency": "inconclusive: 0.891 µM [inhibitor, single point]"},
      {"smiles": "COCC(C)NC(=O)c1cc(S(=O)(=O)N2CCCCC2)ccc1N1CCOCC1", "note": "(centres undefined)", "activity change, negative = inhibition": "inactive: 0.164%"},
      {"smiles": "CCCCCn1c(N2CCN(Cc3ccccc3)CC2)nc2c1c(=O)[nH]c(=O)n2C", "Potency": "inconclusive: 8.2 µM [inhibitor, partial curve]"},
      {"smiles": "CCN(CC)CCn1c(NS(=O)(=O)c2ccc(C)cc2)nc2ccccc21", "activity change, negative = inhibition": "inactive: 0.372%"},
      {"smiles": "CCOC(=O)C1=C(C)N=C2c3ccccc3C(=O)C2C1c1ccc(Cl)cc1", "note": "(centres undefined)", "Potency": "inconclusive: 7.3 µM [inhibitor, partial curve, poor fit]"},
      {"smiles": "COc1ccc(S(=O)(=O)n2nc(OC(=O)c3ccc(C)cc3)cc2N)cc1", "activity change, negative = inhibition": "inactive: -14.8%"},
      {"smiles": "O=C(NCCCN1CCc2ccccc2C1)Nc1ccc(Cl)cc1", "Potency": "inconclusive: 5.8 µM [activator, partial curve, poor fit]"},
      {"smiles": "CCOc1ccc(NC(=O)Cn2c(=O)cc(C)c3c(C)nn(-c4cccc(Cl)c4C)c32)cc1", "activity change, negative = inhibition": "inactive: 0.0885% [at 46.1 µM]"},
      {"smiles": "Cc1ccc(C(=O)OCC(=O)c2cc(C)n(CC3CCCO3)c2C)cc1", "note": "(centres undefined)", "activity change, negative = inhibition": "inactive: -10.1%"},
      {"smiles": "O=C(COC(=O)CSc1ccc([N+](=O)[O-])cc1)NCc1ccco1", "Potency": "inconclusive: 1.26 µM [activator, single point]"},
      {"smiles": "COc1ccc(C2C(C(=O)NCc3cccnc3)c3ccccc3C(=O)N2C)cc1OC", "note": "(centres undefined)", "Potency": "inconclusive: 0.231 µM [activator, single point]"},
      {"smiles": "CC(=O)Nc1ccc(-c2csc(-c3cccnc3)n2)cc1", "Potency": "inconclusive: 11.2 µM [inhibitor, partial curve, poor fit]"},
      {"smiles": "O=C(c1ccc(OCCCc2cnc[nH]2)cc1)C1CC1", "Potency": "inconclusive: 6.51 µM [activator, single point]"},
      {"smiles": "O=C(CNc1cccc(S(=O)(=O)N2CCCC2)c1)Nc1cccc(Br)c1", "Potency": "inconclusive: 11.2 µM [inhibitor, partial curve]"},
      {"smiles": "N/C(=N\\OC(=O)Cc1ccc(-c2ccccc2)cc1)c1ccccn1", "Potency": "inconclusive: 23.1 µM [inhibitor, single point]"},
      {"smiles": "O=C(Nc1cccc2ncccc12)c1ccc(Br)c([N+](=O)[O-])c1", "Potency": "inconclusive: 11.2 µM [inhibitor, partial curve, poor fit]"},
      {"smiles": "COc1ccc(CN2C(=O)NC(=O)/C(=C\\c3cc(OC)c(OC)c(OC)c3)C2=O)cc1", "activity change, negative = inhibition": "inactive: -2.11%"},
      {"smiles": "Cc1cc2nc(-c3cccc(NC(=O)COc4ccc(Cl)c(C)c4)c3)oc2cc1C", "Potency": "inconclusive: 11.2 µM [activator, partial curve, poor fit]"},
      {"smiles": "Cc1ccc(CNC(=O)CN2CCN(Cc3ccc(F)cc3)C2=O)cc1", "activity change, negative = inhibition": "inactive: -0.783% [at 46.1 µM]"},
      {"smiles": "Cn1c(SCC(=O)Nc2ccc3cn[nH]c3c2)nnc1-c1cnccn1", "Potency": "inconclusive: 25.1 µM [activator, single point]"},
      {"smiles": "CCOC(=O)C1(CC2CCCCO2)CCN(S(=O)(=O)c2ccc(C)s2)CC1", "note": "(centres undefined)", "activity change, negative = inhibition": "inactive: 2.62% [at 46.1 µM]"},
      {"smiles": "O=[N+]([O-])c1cc(-c2n(-c3ccccn3)c3ccccc3[n+]2-c2ccccn2)ccc1Cl", "activity change, negative = inhibition": "inactive: -5.22%"},
      {"smiles": "O=C(c1ccco1)N1CCN(C(c2ccccc2Cl)c2nnnn2Cc2cccs2)CC1", "note": "(centres undefined)", "Potency": "inconclusive: 31.6 µM [inhibitor, single point]"},
      {"smiles": "CCOC(=O)c1cnc(-n2[nH]c(C)cc2=O)[nH]c1=O", "activity change, negative = inhibition": "inactive: 6.59% [at 46.1 µM]"},
      {"smiles": "COc1cc2c(cc1OC)-c1c3c(cc4c1[C@@H](C2)N(C)CC4)OCO3", "Potency": "inconclusive: 1.46 µM [inhibitor, full curve, poor fit]"},
      {"smiles": "Cc1ccc2nc(SCC(=O)Nc3cccc(S(=O)(=O)N(C)C)c3)[nH]c2c1", "Potency": "inconclusive: 12.6 µM [inhibitor, partial curve, poor fit]"},
      {"smiles": "Nc1nc(N)nc(-c2ccccc2O)n1", "activity change, negative = inhibition": "inactive: 9.6%"},
      {"smiles": "COC(=O)C1=C(c2ccccc2)c2ccccc2S(=O)(=O)N1CC(=O)Nc1ccc(OC)cc1OC", "Potency": "inconclusive: 8.91 µM [inhibitor, partial curve]"},
      {"smiles": "C/C(=N\\Nc1ccc([N+](=O)[O-])cc1[N+](=O)[O-])C(C)(C)C(C(=O)O)C(=O)O", "Potency": "inconclusive: 0.316 µM [inhibitor, partial curve, poor fit]"},
      {"smiles": "COc1ccc(C2=Nn3c(nnc3-c3cccnc3)SC2)cc1", "Potency": "inconclusive: 29.1 µM [inhibitor, single point]"},
      {"smiles": "Cc1ccc(Nc2nc(-c3ccc(S(=O)(=O)N4CCOCC4)cc3)cs2)cc1", "activity change, negative = inhibition": "inactive: -28.7%"},
      {"smiles": "COc1ccc(C2=CC(c3ccc(Cl)cc3)n3cnnc3N2)cc1OC", "note": "(centres undefined)", "Potency": "inconclusive: 7.08 µM [inhibitor, partial curve, poor fit]"},
      {"smiles": "O=C(Nc1ccc(Cl)c(C(F)(F)F)c1)N1CCCC(O)C1", "note": "(centres undefined)", "activity change, negative = inhibition": "inactive: 14.9%"},
      {"smiles": "CCOC(=O)C1CCN(C(=O)c2ccccc2NC(C)=O)CC1", "Potency": "inconclusive: 17.8 µM [activator, single point]"},
      {"smiles": "O=C1c2ccccc2S(=O)(=O)N1CCOc1ccc(F)cc1", "activity change, negative = inhibition": "inactive: 8.25%"},
      {"smiles": "Cc1ccc(C)c(C(=O)COC(=O)CCCC(=O)Nc2cc(C(F)(F)F)ccc2Cl)c1", "Potency": "inconclusive: 1.26 µM [activator, single point]"},
      {"smiles": "Cc1cccc(CC(=O)NCCc2csc(-c3ccc(C(F)(F)F)cc3)n2)c1", "Potency": "inconclusive: 3.16 µM [inhibitor, single point]"},
      {"smiles": "C=CCOc1ccc(CNc2nn[nH]n2)cc1", "Potency": "inconclusive: 29.1 µM [activator, partial curve, poor fit]"},
      {"smiles": "O=C(CN1CCOCC1)Nc1cccc(C(F)(F)F)c1", "activity change, negative = inhibition": "inactive: 6.95%"},
      {"smiles": "CCOC(=O)c1ccc(N2C(=O)c3n[nH]c(-c4ccco4)c3C2c2ccc(F)cc2)cc1", "note": "(centres undefined)", "Potency": "inconclusive: 12.6 µM [inhibitor, partial curve, poor fit]"},
      {"smiles": "N#Cc1c(Cl)nc(N/N=C/c2ccccc2)c(Cl)c1Cl", "activity change, negative = inhibition": "inactive: 7.28%"},
      {"smiles": "CN(C)c1ccc(/C=N/n2c(COc3ccccc3)n[nH]c2=S)cc1", "Potency": "active: 0.92 µM"},
      {"smiles": "O=c1[nH]c(C2CCCN(S(=O)(=O)Cc3ccccc3)C2)nc2c1nnn2Cc1cccc(Cl)c1", "note": "(centres undefined)", "Potency": "inconclusive: 35.5 µM [inhibitor, single point]"},
      {"smiles": "Cc1ccc(N2C(=O)CC(Sc3ccccc3C(=O)O)C2=O)cc1C", "note": "(centres undefined)", "Potency": "inconclusive: 14.1 µM [activator, single point]"},
      {"smiles": "CN1CCN(S(=O)(=O)c2cnccc2N2CCN(c3cccc(Cl)c3)CC2)CC1", "Potency": "inconclusive: 29.1 µM [inhibitor, single point]"},
      {"smiles": "CC(C)OCc1cc(CN2CCN(c3ccccc3)CC2)c(O)c2ncccc12", "Potency": "inconclusive: 3.55 µM [inhibitor, full curve, poor fit]"},
      {"smiles": "COc1ccc(C2C3=C(N=C4SCC(=O)N42)c2ccccc2CC3)cc1OC", "note": "(centres undefined)", "activity change, negative = inhibition": "inactive: -21.7%"},
      {"smiles": "COc1ccc(-c2csc(N(CC3CCCO3)C(=O)c3ccc(C)cc3)n2)cc1", "note": "(centres undefined)", "Potency": "inconclusive: 29.1 µM [inhibitor, single point]"},
      {"smiles": "CC1(C)CC(=O)c2cnc(NC(=O)CSc3nc4ccccc4o3)nc2C1", "Potency": "inconclusive: 15.8 µM [activator, partial curve, poor fit]"},
      {"smiles": "CCOc1ccc(CCNC(=O)c2cnc3sc(N4CCCCCC4)nn3c2=O)cc1", "Potency": "inconclusive: 25.1 µM [inhibitor, single point]"},
      {"smiles": "O=C(Cc1csc(NC(=O)Nc2ccc(Cl)cc2)n1)NC1CCCC1", "activity change, negative = inhibition": "inactive: -26.9%"},
      {"smiles": "CC(=O)Oc1ccc(-c2nc3cc(Cl)ccc3c(=O)o2)cc1", "activity change, negative = inhibition": "inactive: 13.7% [at 46.1 µM]"},
      {"smiles": "CN(C)C(CNC(=O)c1ccc(NC(=O)c2cccs2)cc1)c1ccccc1", "note": "(centres undefined)", "activity change, negative = inhibition": "inactive: 0.649% [at 46.1 µM]"},
      {"smiles": "COc1ccc(C(=O)NCCSc2ccccn2)cc1", "Potency": "active: 14.1 µM"},
      {"smiles": "COc1ccc(OC)c(-c2cc(C(=O)N3CCc4ccccc4C3)no2)c1", "Potency": "inconclusive: 0.116 µM [activator, full curve, poor fit]"},
      {"smiles": "CC(C)CCNC(=O)c1ccc2c(c1)N(Cc1ccccc1F)C(=O)c1ccccc1S2=O", "note": "(centres undefined)", "Potency": "inconclusive: 35.5 µM [inhibitor, single point]"},
      {"smiles": "CCSc1nnc2c(n1)OC(C)(C)Nc1ccccc1-2", "Potency": "inconclusive: 18.3 µM [activator, single point]"},
      {"smiles": "O=C(/C(=C/O)N=Nc1ccccc1)c1ccncc1", "Potency": "inconclusive: 6.31 µM [inhibitor, single point]"},
      {"smiles": "Cc1ccc(C2C(C#N)=C(N)Oc3c2oc(CO)cc3=O)o1", "note": "(centres undefined)", "activity change, negative = inhibition": "inactive: -23.8%"},
      {"smiles": "CCN1CCCC1CNC(=O)c1cc(S(N)(=O)=O)ccc1OC", "note": "(centres undefined)", "Potency": "inconclusive: 0.0041 µM [activator, full curve, poor fit]"},
      {"smiles": "CCOc1cc(CNc2ccc(O)cc2)cc(Br)c1OCc1ccccc1F", "Potency": "inconclusive: 31.6 µM [inhibitor, single point]"},
      {"smiles": "Cc1cc(Cl)ccc1NC(=O)CSc1nnc(-c2ccncc2)n1Cc1ccco1", "activity change, negative = inhibition": "inactive: -12.9%"},
      {"smiles": "CCCC(=O)OCCNc1cc(Sc2nc3ccccc3[nH]2)c2nonc2c1[N+](=O)[O-]", "Potency": "inconclusive: 20 µM [inhibitor, single point]"},
      {"smiles": "Cc1ccc(Cn2c(CCCNC(=O)C3CCCCC3)nc3ccccc32)cc1", "Potency": "inconclusive: 3.55 µM [inhibitor, partial curve, poor fit]"},
      {"smiles": "C/C(=N\\NC(=O)c1cc(C2CC2)nc2ccccc12)c1ccc(C)s1", "activity change, negative = inhibition": "inactive: 0.815%"},
      {"smiles": "Fc1cccc2sc(N3CCOCC3)nc12", "Potency": "inconclusive: 10.3 µM [activator, partial curve]"},
      {"smiles": "Cc1ccc(-c2cc(C(=O)N3CCN(c4ccccc4)CC3)c3ccccc3n2)cc1C", "Potency": "inconclusive: 7.08 µM [inhibitor, partial curve, poor fit]"}
    ]}
  ]
}
